Results taken from article PMC8860610.
No constants are given. Whether binding was seen depends on the method and setting. For some of these results: Sequences can lack the tags named with a protein.

Sequences of proteins named here, by UniProt entry; tags and fusion partners are left off. A change or cut given only in a name is not applied to a line headed by its entry.
UniProt P32558: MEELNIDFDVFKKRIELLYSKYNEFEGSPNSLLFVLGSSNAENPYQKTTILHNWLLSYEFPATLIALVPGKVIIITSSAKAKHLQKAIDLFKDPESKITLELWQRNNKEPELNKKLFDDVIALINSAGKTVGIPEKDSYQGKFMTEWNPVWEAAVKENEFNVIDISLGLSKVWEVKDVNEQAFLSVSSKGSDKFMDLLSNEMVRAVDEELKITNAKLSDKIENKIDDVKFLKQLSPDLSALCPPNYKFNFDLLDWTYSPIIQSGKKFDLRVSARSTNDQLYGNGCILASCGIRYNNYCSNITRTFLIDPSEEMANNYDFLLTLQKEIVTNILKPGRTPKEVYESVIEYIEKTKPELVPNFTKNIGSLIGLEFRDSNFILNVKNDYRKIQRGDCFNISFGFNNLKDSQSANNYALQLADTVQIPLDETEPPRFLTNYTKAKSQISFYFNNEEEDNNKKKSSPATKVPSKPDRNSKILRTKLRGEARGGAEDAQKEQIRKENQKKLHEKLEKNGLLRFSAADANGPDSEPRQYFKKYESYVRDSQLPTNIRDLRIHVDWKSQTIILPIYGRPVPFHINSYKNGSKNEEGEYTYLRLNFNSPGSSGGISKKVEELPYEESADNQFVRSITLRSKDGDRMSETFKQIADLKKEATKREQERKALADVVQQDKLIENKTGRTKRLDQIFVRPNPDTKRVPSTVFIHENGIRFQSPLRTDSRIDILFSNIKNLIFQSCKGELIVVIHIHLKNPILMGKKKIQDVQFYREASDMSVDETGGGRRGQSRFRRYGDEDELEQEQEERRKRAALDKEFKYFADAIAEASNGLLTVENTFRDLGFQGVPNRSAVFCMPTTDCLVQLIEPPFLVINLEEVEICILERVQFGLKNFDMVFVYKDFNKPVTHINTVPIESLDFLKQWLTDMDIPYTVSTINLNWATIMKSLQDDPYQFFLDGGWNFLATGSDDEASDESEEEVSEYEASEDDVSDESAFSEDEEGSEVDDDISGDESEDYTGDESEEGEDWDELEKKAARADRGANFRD
UniProt Q04636: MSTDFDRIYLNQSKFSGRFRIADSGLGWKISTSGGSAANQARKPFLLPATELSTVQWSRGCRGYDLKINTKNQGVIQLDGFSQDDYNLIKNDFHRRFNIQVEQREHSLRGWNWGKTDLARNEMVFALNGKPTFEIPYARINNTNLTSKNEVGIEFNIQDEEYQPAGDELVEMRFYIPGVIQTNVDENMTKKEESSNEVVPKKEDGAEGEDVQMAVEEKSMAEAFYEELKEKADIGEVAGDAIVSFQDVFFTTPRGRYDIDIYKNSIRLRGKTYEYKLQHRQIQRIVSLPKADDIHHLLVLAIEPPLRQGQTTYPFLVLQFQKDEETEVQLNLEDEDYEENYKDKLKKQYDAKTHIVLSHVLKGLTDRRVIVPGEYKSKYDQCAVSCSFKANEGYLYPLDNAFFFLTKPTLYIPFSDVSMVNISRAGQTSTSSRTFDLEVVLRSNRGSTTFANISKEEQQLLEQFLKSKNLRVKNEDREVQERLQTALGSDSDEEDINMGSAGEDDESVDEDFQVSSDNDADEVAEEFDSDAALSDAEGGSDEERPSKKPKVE
UniProt P29469: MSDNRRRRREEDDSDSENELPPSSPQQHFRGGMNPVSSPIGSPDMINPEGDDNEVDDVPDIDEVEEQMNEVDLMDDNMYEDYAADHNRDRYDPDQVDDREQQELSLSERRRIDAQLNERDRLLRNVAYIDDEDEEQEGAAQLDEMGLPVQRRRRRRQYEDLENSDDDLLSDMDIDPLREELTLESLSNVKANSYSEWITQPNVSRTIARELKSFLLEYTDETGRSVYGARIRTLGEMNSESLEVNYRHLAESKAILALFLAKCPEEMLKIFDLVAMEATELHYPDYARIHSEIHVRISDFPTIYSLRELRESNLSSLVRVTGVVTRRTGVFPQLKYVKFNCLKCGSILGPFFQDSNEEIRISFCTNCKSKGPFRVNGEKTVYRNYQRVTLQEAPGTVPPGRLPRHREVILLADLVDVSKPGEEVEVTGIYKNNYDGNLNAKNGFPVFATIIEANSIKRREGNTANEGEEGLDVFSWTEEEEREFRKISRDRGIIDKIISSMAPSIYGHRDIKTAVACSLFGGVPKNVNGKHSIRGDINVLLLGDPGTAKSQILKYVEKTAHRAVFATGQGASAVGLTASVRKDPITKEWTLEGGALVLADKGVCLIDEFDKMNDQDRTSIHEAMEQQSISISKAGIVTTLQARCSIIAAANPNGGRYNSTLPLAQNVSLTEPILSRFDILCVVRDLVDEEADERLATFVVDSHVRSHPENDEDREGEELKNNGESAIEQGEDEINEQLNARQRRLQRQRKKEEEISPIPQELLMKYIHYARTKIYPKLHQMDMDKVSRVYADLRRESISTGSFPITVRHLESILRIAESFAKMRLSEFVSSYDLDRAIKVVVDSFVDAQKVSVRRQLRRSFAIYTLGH

Experiments:
[1] = molecular target: T1, GST-tagged Tof1_M (793-937 aa) (Saccharomyces cerevisiae) (UniProt P53840); test: pull-down; 1.5 μM GST fusion proteins (Tof1_N, Tof1_M, Tof1_C, Csm3) as bait on glutathione agarose, 3 μM fl FACT or FACT truncations as prey, 90 min at 4°C, washed with buffer G (300 mM NaCl), eluted with glutathione, SDS-PAGE; both purified
T1 sequence: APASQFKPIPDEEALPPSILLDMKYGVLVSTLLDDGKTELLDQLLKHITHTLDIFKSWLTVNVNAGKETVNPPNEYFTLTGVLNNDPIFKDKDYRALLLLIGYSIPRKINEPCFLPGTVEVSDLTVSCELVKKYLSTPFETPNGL

[2] = molecular target: T2, GST-tagged fl Csm3 (Saccharomyces cerevisiae) (UniProt Q04659); test: as above
T2 sequence: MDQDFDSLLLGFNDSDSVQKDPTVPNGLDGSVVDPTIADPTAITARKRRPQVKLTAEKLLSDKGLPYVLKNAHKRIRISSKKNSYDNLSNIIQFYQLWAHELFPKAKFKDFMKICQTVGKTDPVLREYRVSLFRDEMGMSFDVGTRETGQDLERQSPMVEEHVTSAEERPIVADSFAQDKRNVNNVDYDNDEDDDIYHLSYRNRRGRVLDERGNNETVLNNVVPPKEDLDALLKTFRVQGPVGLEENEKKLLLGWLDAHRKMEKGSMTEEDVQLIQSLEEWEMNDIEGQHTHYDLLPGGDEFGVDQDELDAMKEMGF

[3] = molecular target: T3, GST-tagged Tof1_N (1-638 aa) (Saccharomyces cerevisiae) (UniProt P53840); test: as above
T3 sequence: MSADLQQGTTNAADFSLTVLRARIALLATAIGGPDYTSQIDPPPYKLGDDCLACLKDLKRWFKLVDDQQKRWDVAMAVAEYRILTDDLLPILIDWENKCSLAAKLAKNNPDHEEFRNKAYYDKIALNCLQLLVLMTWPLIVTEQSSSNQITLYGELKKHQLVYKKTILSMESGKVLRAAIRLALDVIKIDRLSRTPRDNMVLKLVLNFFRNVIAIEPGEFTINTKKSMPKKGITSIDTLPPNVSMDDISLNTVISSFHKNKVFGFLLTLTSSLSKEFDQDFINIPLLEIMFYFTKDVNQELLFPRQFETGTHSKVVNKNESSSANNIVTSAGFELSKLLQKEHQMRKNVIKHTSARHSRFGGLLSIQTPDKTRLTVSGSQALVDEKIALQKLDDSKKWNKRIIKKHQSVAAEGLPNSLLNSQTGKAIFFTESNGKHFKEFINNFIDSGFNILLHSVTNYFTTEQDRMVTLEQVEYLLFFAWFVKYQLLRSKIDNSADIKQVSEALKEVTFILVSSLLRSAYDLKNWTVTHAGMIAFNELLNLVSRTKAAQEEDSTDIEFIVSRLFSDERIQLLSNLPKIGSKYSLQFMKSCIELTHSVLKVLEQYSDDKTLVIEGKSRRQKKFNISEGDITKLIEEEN

[4] = molecular target: FACT consisting of Spt16 and GST-tagged Pob3 (Saccharomyces cerevisiae) (UniProt P32558+Q04636); test: pull-down; 0.5 μM GST-Pob3Spt16 as bait with 1 μM replisome factor, on ice 30 min, immobilised on glutathione agarose 90 min at 4°C, washed with buffer G (50 mM HEPES-NaOH pH 7.6, 300 mM NaCl, 0.05% NP-40), eluted with glutathione, SDS-PAGE; both purified

binding [1]	binding [2]	binding [3]	binding [4]	Substance
no binding (tested: 3 μM)	no binding (tested: 3 μM)	no binding (tested: 3 μM)		full-length (fl) FACT (Spt16-Pob3) (from UniProt P32558 1-1035; Q04636 1-552) (complex)
			no binding (tested: 1 μM)	MCM-Cdt1 (from UniProt P29469 1-868; P24279 1-971; P30665 1-933; P29496 1-775; P53091 1-1017; P38132 1-845; P47112 1-604) (complex)
